Experimental findings from ChEMBL document CHEMBL4130349, “Discovery and structure-activity relationship studies of 2-benzylidene-2,3-dihydro-1H-inden-1-one and benzofuran-3(2H)-one derivatives as a novel class of potential therapeutics for inflammatory bowel disease” (Eur J Med Chem, 2017) are described below.

In the assay the test system is HT-29. The assay can be described thus: Inhibition of TNF-alpha-induced adhesion of BCECF-labeled human U937 cells to human HT-29 cells at 10 uM preincubated for 1 hr followed by TNF-alpha challenge measured after 3 hrs by fluorescence microscopic method relative to control. Type of assay: functional.

`O=C1/C(=C/c2ccncc2)Cc2ccccc21` had an inhibition at 10 µM of 52.1%.
